Data: patent US12611411B2, “Triple-agent therapy for cancer treatment” (CYTOMETRIC THERAPEUTICS, INC., priority 2021, dated 2026)
For at least one compound, name, drawing or mass did not settle the structure.

What was measured:
[1] = system: glioblastoma multiforme (GBM); test: TGV therapy case study, glioblastoma multiforme (Example 4); type: in vivo, human; details: person, radiation and Temodar before TGV
glioblastoma multiforme = test: TGV therapy case study, glioblastoma multiforme (Example 7); type: in vivo, human; details: person, radiation therapy and temozolomide after primary resection, before TGV

Structure (SMILES): Cn1nnc2c(C(N)=O)ncn2c1=O [Temodar®, temozolomide]
- outcome of standard therapy [1]: the disease progressed
- duration of remission (glioblastoma multiforme): two
